# Measured values published in the supplement of paper PMC8728848.
# This is one part of the list.
# B1: DC-Sign-R (Homo sapiens), Q9H2X3 (protein)
# chain: MSDSKEPRVQQLGLLEEDPTTSGIRLFPRDFQFQQIHGHKSSTGCLGHGALVLQLLSFMLLAGVLVAILVQVSKVPSSLSQEQSEQDAIYQNLTQLKAAVGELSEKSKLQEIYQELTQLKAAVGELPEKSKLQEIYQELTRLKAAVGELPEKSKLQEIYQELTRLKAAVGELPEKSKLQEIYQELTRLKAAVGELPEKSKLQEIYQELTELKAAVGELPEKSKLQEIYQELTQLKAAVGELPDQSKQQQIYQELTDLKTAFERLCRHCPKDWTFFQGNCYFMSNSQRNWHDSVTACQEVRAQLVVIKTAEEQNFLQLQTSRSNRFSWMGLSDLNQEGTWQWVDGSPLSPSFQRYWNSGEPNNSGNEDCAEFSGSGWNDNRCDVDNYWICKKPAACFRDE
# Assays:
# Assay in all cases: glycan array binding signal (z-score within array); higher = stronger binding
# Details in all cases: glycan notation: IUPAC condensed, linker removed
# [1] = molecular target: Gal(b1-3)GlcNAc(b1-3)Gal(b1-4)GlcNAc(b1-2)Man(a1-3)[Gal(b1-3)GlcNAc(b1-3)Gal(b1-4)GlcNAc(b1-2)Man(a1-6)]Man(b1-4)GlcNAc(b1-4)GlcNAc
# In short: (§1)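 The Consortium for Functional Glycomics database supplied 3228 glycan arrays, of which those lacking an available protein sequence were dropped. The binding signal, a within-array Z-score, was averaged across arrays of the same protein sequence and across linkers. Negative scores can be read as non-binding.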
# [2] = molecular target: Gal(b1-3)GlcNAc(b1-3)Gal(b1-4)GlcNAc(b1-2)[Gal(b1-3)GlcNAc(b1-3)Gal(b1-4)GlcNAc(b1-6)]Man(a1-6)[Gal(b1-3)GlcNAc(b1-3)Gal(b1-4)GlcNAc(b1-2)Man(a1-3)]Man(b1-4)GlcNAc(b1-4)[Fuc(a1-6)]GlcNAc
# In short: as §1
# [3] = molecular target: Gal(b1-3)GlcNAc(b1-3)Gal(b1-4)GlcNAc(b1-3)Gal(b1-4)GlcNAc(b1-2)[Gal(b1-3)GlcNAc(b1-3)Gal(b1-4)GlcNAc(b1-3)Gal(b1-4)GlcNAc(b1-6)]Man(a1-6)[Gal(b1-3)GlcNAc(b1-3)Gal(b1-4)GlcNAc(b1-3)Gal(b1-4)GlcNAc(b1-2)Man(a1-3)]Man(b1-4)GlcNAc(b1-4)[Fuc(a1-6)]GlcNAc
# In short: as §1
# [4] = molecular target: Gal(b1-3)GlcNAc(b1-3)Gal(b1-4)GlcNAc(b1-6)[Gal(b1-3)GlcNAc(b1-3)]Gal(b1-4)Glc
# In short: as §1
# [5] = molecular target: Gal(b1-3)GlcNAc(b1-3)Gal(b1-4)[Fuc(a1-3)]GlcNAc
# In short: as §1
# [6] = molecular target: Gal(b1-3)GlcNAc(b1-3)Gal(b1-4)[Fuc(a1-3)]GlcNAc(b1-6)[Gal(b1-3)GlcNAc(b1-3)]Gal(b1-4)Glc
# In short: as §1
# [7] = molecular target: Gal(b1-3)GlcNAc(b1-3)GalNAc
# In short: as §1
# [8] = molecular target: Gal(b1-3)GlcNAc(b1-6)Gal(b1-4)GlcNAc
# In short: as §1
# [9] = molecular target: Gal(b1-3)GlcNAc(b1-6)GalNAc
# In short: as §1
# [10] = molecular target: Gal(b1-3)GlcNAc(b1-6)[Gal(b1-3)]GalNAc
# In short: as §1
# [11] = molecular target: Gal(b1-3)GlcNAc6S
# In short: as §1
# [12] = molecular target: Gal(b1-3)[Fuc(a1-4)]GlcNAc
# In short: as §1
# [13] = molecular target: Gal(b1-3)[Fuc(a1-4)]GlcNAc(b1-2)Man
# In short: as §1
# [14] = molecular target: Gal(b1-3)[Fuc(a1-4)]GlcNAc(b1-2)Man(a1-3)[Gal(b1-3)[Fuc(a1-4)]GlcNAc(b1-2)Man(a1-6)]Man(b1-4)GlcNAc(b1-4)[Fuc(a1-6)]GlcNAc
# In short: as §1
# [15] = molecular target: Gal(b1-3)[Fuc(a1-4)]GlcNAc(b1-3)Gal(b1-3)[Fuc(a1-4)]GlcNAc
# In short: as §1
# [16] = molecular target: Gal(b1-3)[Fuc(a1-4)]GlcNAc(b1-3)Gal(b1-4)[Fuc(a1-3)]GlcNAc
# In short: as §1
# [17] = molecular target: Gal(b1-3)[Fuc(a1-4)]GlcNAc(b1-6)GalNAc
# In short: as §1
# [18] = molecular target: Gal(b1-3)[GlcNAc(b1-6)]GalNAc
# In short: as §1
# [19] = molecular target: Gal(b1-3)[Neu5Ac(a2-6)]GalNAc
# In short: as §1
# [20] = molecular target: Gal(b1-3)[Neu5Ac(a2-6)]GlcNAc(b1-4)Gal(b1-4)Glc
# In short: as §1
# [21] = molecular target: Gal(b1-3)[Neu5Ac(b2-6)]GalNAc
# In short: as §1
# [22] = molecular target: Gal(b1-4)Gal
# In short: as §1
# [23] = molecular target: Gal(b1-4)GalNAc(a1-3)[Fuc(a1-2)]Gal(b1-4)GlcNAc
# In short: as §1
# [24] = molecular target: Gal(b1-4)GalNAc(b1-3)[Fuc(a1-2)]Gal(b1-4)GlcNAc
# In short: as §1
# [25] = molecular target: Gal(b1-4)Glc
# In short: as §1
# [26] = molecular target: Gal(b1-4)Glc6S
# In short: as §1
# [27] = molecular target: Gal(b1-4)GlcNAc
# In short: as §1
# [28] = molecular target: Gal(b1-4)GlcNAc(a1-6)Gal(b1-4)GlcNAc
# In short: as §1
# [29] = molecular target: Gal(b1-4)GlcNAc(b1-2)Man
# In short: as §1
# [30] = molecular target: Gal(b1-4)GlcNAc(b1-2)Man(a1-3)Man(b1-4)GlcNAc(b1-4)GlcNAc
# In short: as §1
# [31] = molecular target: Gal(b1-4)GlcNAc(b1-2)Man(a1-3)[Gal(b1-4)GlcNAc(b1-2)Man(a1-6)]Man(b1-4)GlcNAc(b1-4)GlcNAc
# In short: as §1
# [32] = molecular target: Gal(b1-4)GlcNAc(b1-2)Man(a1-3)[Gal(b1-4)GlcNAc(b1-2)Man(a1-6)]Man(b1-4)GlcNAc(b1-4)[Fuc(a1-6)]GlcNAc
# In short: as §1
# [33] = molecular target: Gal(b1-4)GlcNAc(b1-2)Man(a1-3)[Gal(b1-4)GlcNAc(b1-2)Man(a1-6)][Gal(b1-4)GlcNAc(b1-4)]Man(b1-4)GlcNAc(b1-4)[Fuc(a1-6)]GlcNAc
# In short: as §1
# [34] = molecular target: Gal(b1-4)GlcNAc(b1-2)Man(a1-3)[Gal(b1-4)GlcNAc(b1-2)Man(a1-6)][GlcNAc(b1-4)]Man(b1-4)GlcNAc(b1-4)[Fuc(a1-6)]GlcNAc
# In short: as §1
# [35] = molecular target: Gal(b1-4)GlcNAc(b1-2)Man(a1-3)[GlcNAc(b1-2)Man(a1-6)]Man(b1-4)GlcNAc(b1-4)GlcNAc
# In short: as §1
# [36] = molecular target: Gal(b1-4)GlcNAc(b1-2)Man(a1-3)[GlcNAc(b1-4)][Gal(b1-4)GlcNAc(b1-2)Man(a1-6)]Man(b1-4)GlcNAc(b1-4)GlcNAc
# In short: as §1
# [37] = molecular target: Gal(b1-4)GlcNAc(b1-2)Man(a1-3)[Man(a1-6)]Man(b1-4)GlcNAc(b1-4)GlcNAc
# In short: as §1
# [38] = molecular target: Gal(b1-4)GlcNAc(b1-2)Man(a1-6)Man(b1-4)GlcNAc(b1-4)GlcNAc
# In short: as §1
binder,measurement,setting,value
B1,glycan array binding signal (z-score),[1],2.06
same,glycan array binding signal (z-score),[2],0.067
same,glycan array binding signal (z-score),[3],2.5
same,glycan array binding signal (z-score),[4],-0.833
same,glycan array binding signal (z-score),[5],0.359
same,glycan array binding signal (z-score),[6],-0.046
same,glycan array binding signal (z-score),[7],0.359
same,glycan array binding signal (z-score),[8],-0.502
same,glycan array binding signal (z-score),[9],-0.046
same,glycan array binding signal (z-score),[10],0.254
same,glycan array binding signal (z-score),[11],1.41
same,glycan array binding signal (z-score),[12],-0.401
same,glycan array binding signal (z-score),[13],-0.259
same,glycan array binding signal (z-score),[14],-0.738
same,glycan array binding signal (z-score),[15],-0.526
same,glycan array binding signal (z-score),[16],-0.37
same,glycan array binding signal (z-score),[17],0.082
same,glycan array binding signal (z-score),[18],-0.257
same,glycan array binding signal (z-score),[19],-0.403
same,glycan array binding signal (z-score),[20],-0.679
same,glycan array binding signal (z-score),[21],0.069
same,glycan array binding signal (z-score),[22],-0.828
same,glycan array binding signal (z-score),[23],-0.269
same,glycan array binding signal (z-score),[24],-0.569
same,glycan array binding signal (z-score),[25],-0.717
same,glycan array binding signal (z-score),[26],-0.834
same,glycan array binding signal (z-score),[27],-0.167
same,glycan array binding signal (z-score),[28],0.095
same,glycan array binding signal (z-score),[29],0.1
same,glycan array binding signal (z-score),[30],0.931
same,glycan array binding signal (z-score),[31],-0.333
same,glycan array binding signal (z-score),[32],-0.832
same,glycan array binding signal (z-score),[33],0.82
same,glycan array binding signal (z-score),[34],-0.304
same,glycan array binding signal (z-score),[35],2.15
same,glycan array binding signal (z-score),[36],-0.292
same,glycan array binding signal (z-score),[37],1.29
same,glycan array binding signal (z-score),[38],1.69

# As a short view, some entries already given:
binder,measurement,setting,value
B1,glycan array binding signal (z-score),[24],-0.569
same,glycan array binding signal (z-score),[25],-0.717
same,glycan array binding signal (z-score),[26],-0.834
same,glycan array binding signal (z-score),[27],-0.167
same,glycan array binding signal (z-score),[28],0.095
same,glycan array binding signal (z-score),[29],0.1
same,glycan array binding signal (z-score),[30],0.931
same,glycan array binding signal (z-score),[31],-0.333
same,glycan array binding signal (z-score),[32],-0.832
same,glycan array binding signal (z-score),[33],0.82
